Assay: Metabolite expression profiling (GC/MS and LC/MS) of gingival crevicular fluid from healthy, gingivitis and periodontitis sites
Set-up: species or system human

## Maltotriose
G vs H
  fold decrease in level between gingivitis and healthy: 0.90 fold
P vs H
  fold decrease in level between periodontitis and healthy: 0.59 fold
Gingivitis sites (G), relative quantitated value adjusted for sample volume
  MEAN G (relative metabolite level): 1.22
Healthy sites (H) of chronic periodontitis subjects, relative quantitated value adjusted for sample volume
  MEAN H (relative metabolite level): 1.35
Periodontitis sites (P), relative quantitated value adjusted for sample volume
  MEAN P (relative metabolite level): 0.74

Reference: patent US20120020891A1, “METABOLITES FOR ORAL HEALTH AND USES THEREOF” (Colgate-Palmolive Company, priority 2009, published 2012)
